# Data reported in patent US20220315554A1 (priority 2019, published 2022).
# Tests used:
# [1] = general procedure: Fmoc solid-phase peptide synthesis; Rink amide; details: whole synthesis, scale 50 μmol
# [2] = general procedure: Fmoc solid-phase peptide synthesis; pre-loaded aminoethanthiol trityl resin; details: whole synthesis, thioether ring
# [3] = general procedure: Fmoc solid-phase peptide synthesis; trityl; details: whole synthesis, scale 50 μmol
# [4] = general procedure: Fmoc solid-phase peptide synthesis; polystyrene (PS or DEG cross-linked), ChemMatrix (CM) or TentaGel (TG) resin; trityl, Wang and Rink amide linkers; details: for conjugation yield: conjugation step; for step yield: late stage modification step
# [5] = general procedure: Fmoc solid-phase peptide synthesis; WANG Tentagel; details: whole synthesis, thioether ring
# [6] = general procedure: Fmoc solid-phase peptide synthesis; Fmoc-Cys(Trt) WANG Tentagel; details: whole synthesis, scale 50 μmol, thioether ring
# [7] = overall from 3BP-4089, thioether ring
substance,measurement,setting,value
Ac-Met-[Cys(3MeBn)-Pro-Pro-Thr-Glu-Phe-Cys]-Asp-His-Nmf-Arg-Asp-NH2,isolated mass,[1]; thioether ring,8.61 mg
same,isolated yield,[1]; thioether ring,9.8%
DOTA-Ttds-Leu-[Cys(3MeBn)-Pro-Pro-Thr-Glu-Phe-Cys]-Asp-His-Phe-Arg-Asp-NH2,isolated mass,[1]; thioether ring,35.46 mg
same,isolated yield,[1]; thioether ring,29.8%
Hex-Cys(tMeBn(H-PP))-Pro-Pro-Thr-Gln-Phe-Cys]-Asp-NH2,isolated yield,"[1]; on resin loading, run 1",25.3%
same,isolated yield,"[1]; on resin loading, run 2",28.4%
same,isolated mass,[1]; run 1,15.3 mg
same,isolated mass,[1]; run 2,17.2 mg
Hex-[Cys(3MeBn)-Pro-Pro-Thr-Gln-Phe-Cys]-Asp-NH2,isolated mass,"[1]; thioether ring, run 1",16.0 mg
same,isolated yield,"[1]; thioether ring, run 1",28.8%
same,isolated mass,"[1]; thioether ring, run 2",16.9 mg
same,isolated yield,"[1]; thioether ring, run 2",30.4%
Hex-[Cys(3MeBn)-Pro-Pro-Thr-Glu-Phe-Cys]-Asp-His-Ppa-arg-Ttds-Lys(DOTA)-NH2,isolated mass,[1]; thioether ring,17.18 mg
same,isolated yield,[1]; thioether ring,14.5%
Hex-[Cys(tMeBn(DOTA-AET))-Pro-Pro-Thr-Gln-Phe-AET],isolated yield,"[2]; overall, scale of the general procedure 50 μmol and 100 μmol",29.8% overall yield
same,isolated mass,[2],21.25 mg
Hex-[Cys(tMeBn(DOTA-AET))-Pro-Pro-Thr-Gln-Phe-Cysol] [3BP-3762],isolated yield,"[3]; overall, thioether ring",10.7% overall yield
same,isolated mass,[3]; thioether ring,7.8 mg
Hex-[Cys(tMeBn(DTPA(tBu)4-O2Oc-AET))-Pro-Pro-Thr-Gln-Phe-Cys]-OH,conjugation yield,[4],53% yield
Hex-[Cys(tMeBn(H-AET))-Pro-Pro-Thr-Gln-Phe-Cys]-OH,isolated yield,"[3]; on resin loading, run 1",32.8%
same,isolated yield,"[3]; on resin loading, run 2",35.9%
same,isolated mass,[3]; run 1,17.8 mg
same,isolated mass,[3]; run 2,19.47 mg
Hex-[Cys(tMeBn(H-O2Oc-AET))-Pro-Pro-Thr-Gln-Phe-Cys]-OH,conjugation yield,[4],29% yield
Hex-[Cys(tMeBn(NODAGA-AET))-Pro-Pro-Thr-Gln-Phe-Cys]-OH,step yield,[4]; thioether ring,80%
Hex-[Cys-(tMeBn(Bio-Ttds-Ttds-Ttds-Ttds-AET))-Pro-Pro-Thr-Gln-Phe-Cys]-OH,conjugation yield,[4]; thioether ring,18% yield
Hex-[Cys-(tMeBn(DTPA2-AET))-Pro-Pro-Thr-Gln-Phe-Cys]-OH,isolated mass,[5]; scale 100 μmol,5.8 mg
same,isolated yield,[5]; scale 100 μmol,3.9%
Hex-[Cys-(tMeBn(DTPA2-Ttds-AET))-Pro-Pro-Thr-Gln-Phe-Cys]-OH,isolated mass,[5]; scale 100 μmol,6.87 mg
same,isolated yield,[5]; scale 100 μmol,3.9%
Hex-[Cys-(tMeBn(DTPA-AET))-Pro-Pro-Thr-Gln-Phe-Cys]-OH,conjugation yield,[4]; thioether ring,22.9% yield
Hex-[Cys-(tMeBn(DTPA-O2Oc-AET))-Pro-Pro-Thr-Gln-Phe-Cys]-OH,conjugation yield,[4]; [7],overall yield: 8%
same,step yield,[4]; thioether ring,53% yield
Hex-[Cys-(tMeBn(DTPABzl-Glutar-AET))-Pro-Pro-Thr-Gln-Phe-Cys]-OH,isolated mass,[5]; scale 100 μmol,10.53 mg
same,isolated yield,[5]; scale 100 μmol,6.3%
Hex-[Cys-(tMeBn(H-Asp-Asp-Cys-Ttds-AET))-Pro-Pro-Thr-Gln-Phe-Cys]-OH,isolated mass,[5]; scale 100 μmol,5.52 mg
same,isolated yield,[5]; scale 100 μmol,3.2%
Hex-[Cys-(tMeBn(H-HYNIC-AET))-Pro-Pro-Thr-Gln-Phe-Cys]-OH,conjugation yield,[4]; [7],overall yield: 3.4%
same,step yield,[4]; thioether ring,7% yield
Hex-[Cys-(tMeBn(H-SAc-Ser-Ser-Ser-AET))-Pro-Pro-Thr-Gln-Phe-Cys]-OH,isolated mass,[5]; scale 100 μmol,5.25 mg
same,isolated yield,[5]; scale 100 μmol,3.7%
Hex-[Cys-(tMeBn(N4Ac-O2Oc-AET))-Pro-Pro-Thr-Gln-Phe-Cys]-OH,conjugation yield,[4]; thioether ring,55% yield
Hex-[Cys-(tMeBn(NODAGA-AET))-Pro-Pro-Thr-Gln-Phe-Cys]-OH,conjugation yield,[4]; thioether ring,33.7% yield
Hex-[Cys-(tMeBn(NODAGA-O2Oc-AET))-Pro-Pro-Thr-Gln-Phe-Cys]-OH,isolated mass,[5]; scale 50 μmol,4.31 mg
same,isolated yield,[5]; scale 50 μmol,5.4%
Hex-[Cys-(tMeBn(NOTA-AET))-Pro-Pro-Thr-Gln-Phe-Cys]-OH,isolated mass,[5]; scale 100 μmol,5.6 mg
same,isolated yield,[5]; scale 100 μmol,4%
Hex-[Cys-(tMeBn(NOTA-Ttds-AET))-Pro-Pro-Thr-Gln-Phe-Cys]-OH,isolated mass,[5]; scale 100 μmol,10.1 mg
same,isolated yield,[5]; scale 100 μmol,6%
Hex-[Cys-(tMeBn(ReON4Ac-O2Oc-AET))-Pro-Pro-Thr-Gln-Phe-Cys]-OH,step yield,[4]; thioether ring,21% yield
N4Ac-Glu(AGLU)-Ttds-Nle-[Cys-(3MeBn)-Pro-Pro-Thr-Gln-Phe-Cys]-OH,isolated mass,[6],8.97 mg
same,isolated yield,[6],10%
Pentyl-SO2-[Cys(tMeBn(DOTA-PP))-Pro-Pro-Thr-Gln-Phe-Cys]-Asp-NH2,isolated yield,"[4]; whole synthesis, overall, scale 50 μmol, thioether ring",8.7% overall yield
same,isolated mass,"[4]; whole synthesis, scale 50 μmol, thioether ring",7.09 mg
Pentyl-SO2-[Cys(tMeBn(H-PP))-Pro-Pro-Thr-Gln-Phe-Cys]-Asp-NH2,isolated mass,[1],9.15 mg
same,isolated yield,[1],14.7%
